Results from one PubChem assay

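Malaria parasite (P. falciparum) lines kept in red blood cells; parasite DNA is measured by SYBR Green fluorescence after lysis, 72 h after compound addition. Each compound was titrated across a series from about 0.000037 to 29 µM. The number is the fitted AC50, the concentration giving a half-maximal change in signal; a lower value means higher potency, whether the curve shows a decrease or an increase. Calls follow the curve class and fit quality: every row here is inconclusive, covering signal-raising curves and weak, poorly fitted, partial or highest-dose-only inhibition curves.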

Values are in µM. Every entry below has the call inconclusive. Only part of the assay is shown, chiefly results filed as inconclusive. A potency from a partial, single-point or poor curve is only a rough figure.

{"smiles": "Cc1cc2c(C(C)C)c(O)c(O)c(C=O)c2c(O)c1-c1c(C)cc2c(C(C)C)c(O)c(O)c(C=O)c2c1O", "condition": "CP238", "fitted potency (µM)": "15.85", "curve as filed": "inhibitor, single point"}
{"smiles": "Cc1cc2c(C(C)C)c(O)c(O)c(C=O)c2c(O)c1-c1c(C)cc2c(C(C)C)c(O)c(O)c(C=O)c2c1O", "condition": "DFO2036", "fitted potency (µM)": "17.78", "curve as filed": "inhibitor, single point"}
{"smiles": "Cc1cc2c(C(C)C)c(O)c(O)c(C=O)c2c(O)c1-c1c(C)cc2c(C(C)C)c(O)c(O)c(C=O)c2c1O", "condition": "ECU", "fitted potency (µM)": "10", "curve as filed": "inhibitor, single point"}
{"smiles": "Cc1cc2c(C(C)C)c(O)c(O)c(C=O)c2c(O)c1-c1c(C)cc2c(C(C)C)c(O)c(O)c(C=O)c2c1O", "condition": "CP201", "fitted potency (µM)": "19.01", "curve as filed": "inhibitor, single point"}
{"smiles": "Cc1cc2c(C(C)C)c(O)c(O)c(C=O)c2c(O)c1-c1c(C)cc2c(C(C)C)c(O)c(O)c(C=O)c2c1O", "condition": "CP262", "fitted potency (µM)": "19.01", "curve as filed": "inhibitor, single point"}
{"smiles": "Cc1cc2c(C(C)C)c(O)c(O)c(C=O)c2c(O)c1-c1c(C)cc2c(C(C)C)c(O)c(O)c(C=O)c2c1O", "condition": "AA1029", "fitted potency (µM)": "10", "curve as filed": "inhibitor, single point"}
{"smiles": "Cc1cc2c(C(C)C)c(O)c(O)c(C=O)c2c(O)c1-c1c(C)cc2c(C(C)C)c(O)c(O)c(C=O)c2c1O", "condition": "ATS189", "fitted potency (µM)": "17.78", "curve as filed": "inhibitor, single point"}
{"smiles": "Cc1cc2c(C(C)C)c(O)c(O)c(C=O)c2c(O)c1-c1c(C)cc2c(C(C)C)c(O)c(O)c(C=O)c2c1O", "condition": "CP215", "fitted potency (µM)": "13.46", "curve as filed": "inhibitor, single point"}
{"smiles": "Cc1cc2c(C(C)C)c(O)c(O)c(C=O)c2c(O)c1-c1c(C)cc2c(C(C)C)c(O)c(O)c(C=O)c2c1O", "condition": "CP305", "fitted potency (µM)": "10.69", "curve as filed": "inhibitor, partial curve"}
{"smiles": "Cc1cc2c(C(C)C)c(O)c(O)c(C=O)c2c(O)c1-c1c(C)cc2c(C(C)C)c(O)c(O)c(C=O)c2c1O", "condition": "TAB113", "fitted potency (µM)": "12.59", "curve as filed": "inhibitor, single point"}
{"smiles": "Cc1cc2c(C(C)C)c(O)c(O)c(C=O)c2c(O)c1-c1c(C)cc2c(C(C)C)c(O)c(O)c(C=O)c2c1O", "condition": "C2A", "fitted potency (µM)": "8.912", "curve as filed": "inhibitor, partial curve"}
{"smiles": "Cc1cc2c(C(C)C)c(O)c(O)c(C=O)c2c(O)c1-c1c(C)cc2c(C(C)C)c(O)c(O)c(C=O)c2c1O", "condition": "CP329", "fitted potency (µM)": "19.01", "curve as filed": "inhibitor, single point"}
{"smiles": "Cc1cc2c(C(C)C)c(O)c(O)c(C=O)c2c(O)c1-c1c(C)cc2c(C(C)C)c(O)c(O)c(C=O)c2c1O", "condition": "GB4", "fitted potency (µM)": "19.01", "curve as filed": "inhibitor, single point"}
{"smiles": "Cc1cc2c(C(C)C)c(O)c(O)c(C=O)c2c(O)c1-c1c(C)cc2c(C(C)C)c(O)c(O)c(C=O)c2c1O", "condition": "CP252", "fitted potency (µM)": "11.22", "curve as filed": "inhibitor, single point"}
{"smiles": "Cc1cc2c(C(C)C)c(O)c(O)c(C=O)c2c(O)c1-c1c(C)cc2c(C(C)C)c(O)c(O)c(C=O)c2c1O", "condition": "JCK", "fitted potency (µM)": "17.78", "curve as filed": "inhibitor, single point"}
{"smiles": "Cc1cc2c(C(C)C)c(O)c(O)c(C=O)c2c(O)c1-c1c(C)cc2c(C(C)C)c(O)c(O)c(C=O)c2c1O", "condition": "DIV14", "fitted potency (µM)": "19.01", "curve as filed": "inhibitor, single point"}
{"smiles": "Cc1cc2c(C(C)C)c(O)c(O)c(C=O)c2c(O)c1-c1c(C)cc2c(C(C)C)c(O)c(O)c(C=O)c2c1O", "condition": "SC27B", "fitted potency (µM)": "17.78", "curve as filed": "inhibitor, single point"}
{"smiles": "Cc1cc2c(C(C)C)c(O)c(O)c(C=O)c2c(O)c1-c1c(C)cc2c(C(C)C)c(O)c(O)c(C=O)c2c1O", "condition": "P93_24", "fitted potency (µM)": "15.85", "curve as filed": "inhibitor, single point"}
{"smiles": "Cc1cc2c(C(C)C)c(O)c(O)c(C=O)c2c(O)c1-c1c(C)cc2c(C(C)C)c(O)c(O)c(C=O)c2c1O", "condition": "CP217", "fitted potency (µM)": "15.85", "curve as filed": "inhibitor, single point"}
{"smiles": "Cc1cc2c(C(C)C)c(O)c(O)c(C=O)c2c(O)c1-c1c(C)cc2c(C(C)C)c(O)c(O)c(C=O)c2c1O", "condition": "PAD", "fitted potency (µM)": "10", "curve as filed": "inhibitor, single point"}
{"smiles": "Cc1cc2c(C(C)C)c(O)c(O)c(C=O)c2c(O)c1-c1c(C)cc2c(C(C)C)c(O)c(O)c(C=O)c2c1O", "condition": "P94_40", "fitted potency (µM)": "10", "curve as filed": "inhibitor, single point"}

Repeated from the top, 2 entries:

For Cc1cc2c(C(C)C)c(O)c(O)c(C=O)c2c(O)c1-c1c(C)cc2c(C(C)C)c(O)c(O)c(C=O)c2c1O [CP238] the result was fitted potency 15.85 µM (inhibitor, single point).
For Cc1cc2c(C(C)C)c(O)c(O)c(C=O)c2c(O)c1-c1c(C)cc2c(C(C)C)c(O)c(O)c(C=O)c2c1O [DFO2036] the result was fitted potency 17.78 µM (inhibitor, single point).

Data taken from PubChem BioAssay AID504749, deposited by NCATS (2011).